According to the supplement of paper PMC10849652:
This is one part of the list.

Protein sequences, listed by entry. Tags and fused reporters are not part of them. Lines headed by an entry give the natural chain unless they say otherwise; changes in a name come on top.
UniProt Q9NX47: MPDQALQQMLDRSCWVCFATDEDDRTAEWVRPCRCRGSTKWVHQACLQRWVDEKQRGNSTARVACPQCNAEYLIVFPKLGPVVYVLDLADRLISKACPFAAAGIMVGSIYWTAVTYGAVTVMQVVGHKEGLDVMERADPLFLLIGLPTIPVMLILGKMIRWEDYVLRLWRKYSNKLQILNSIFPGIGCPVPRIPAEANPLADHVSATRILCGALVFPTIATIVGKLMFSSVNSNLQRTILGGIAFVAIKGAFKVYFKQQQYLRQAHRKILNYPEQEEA
UniProt Q8IW41: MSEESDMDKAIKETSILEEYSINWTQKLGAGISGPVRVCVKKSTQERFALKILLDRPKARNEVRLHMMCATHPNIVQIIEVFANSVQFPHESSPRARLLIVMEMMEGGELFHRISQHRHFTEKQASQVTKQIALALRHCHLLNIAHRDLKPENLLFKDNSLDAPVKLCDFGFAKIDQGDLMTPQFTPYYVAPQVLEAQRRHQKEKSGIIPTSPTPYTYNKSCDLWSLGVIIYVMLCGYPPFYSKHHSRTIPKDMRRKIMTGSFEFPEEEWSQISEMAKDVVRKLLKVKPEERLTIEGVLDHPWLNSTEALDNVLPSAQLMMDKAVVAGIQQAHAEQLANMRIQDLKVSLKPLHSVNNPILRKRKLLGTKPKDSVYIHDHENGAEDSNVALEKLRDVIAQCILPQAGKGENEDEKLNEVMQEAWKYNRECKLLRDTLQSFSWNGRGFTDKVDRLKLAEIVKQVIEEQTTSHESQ
UniProt Q3KQU3: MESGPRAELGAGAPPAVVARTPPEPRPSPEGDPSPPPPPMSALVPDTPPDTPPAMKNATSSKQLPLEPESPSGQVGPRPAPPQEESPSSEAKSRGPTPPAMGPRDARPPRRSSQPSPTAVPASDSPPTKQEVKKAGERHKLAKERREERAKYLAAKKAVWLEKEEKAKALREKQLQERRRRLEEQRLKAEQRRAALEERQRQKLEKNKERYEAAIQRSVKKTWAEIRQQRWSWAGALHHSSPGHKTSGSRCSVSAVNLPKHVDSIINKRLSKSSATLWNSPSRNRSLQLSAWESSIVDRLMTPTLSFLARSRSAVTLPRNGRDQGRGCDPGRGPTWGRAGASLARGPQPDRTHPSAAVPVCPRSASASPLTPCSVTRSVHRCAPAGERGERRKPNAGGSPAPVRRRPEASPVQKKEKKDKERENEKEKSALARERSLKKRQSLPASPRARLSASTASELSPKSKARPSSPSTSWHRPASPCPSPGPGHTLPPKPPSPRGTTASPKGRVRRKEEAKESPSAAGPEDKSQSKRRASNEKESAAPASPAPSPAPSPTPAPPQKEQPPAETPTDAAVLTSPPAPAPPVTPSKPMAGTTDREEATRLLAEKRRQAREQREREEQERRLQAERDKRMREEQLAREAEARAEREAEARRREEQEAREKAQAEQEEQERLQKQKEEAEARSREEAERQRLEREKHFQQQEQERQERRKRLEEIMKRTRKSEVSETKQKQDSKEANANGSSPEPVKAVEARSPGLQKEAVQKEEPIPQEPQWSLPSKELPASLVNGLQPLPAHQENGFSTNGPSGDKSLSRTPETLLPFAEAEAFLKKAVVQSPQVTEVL
UniProt P12980: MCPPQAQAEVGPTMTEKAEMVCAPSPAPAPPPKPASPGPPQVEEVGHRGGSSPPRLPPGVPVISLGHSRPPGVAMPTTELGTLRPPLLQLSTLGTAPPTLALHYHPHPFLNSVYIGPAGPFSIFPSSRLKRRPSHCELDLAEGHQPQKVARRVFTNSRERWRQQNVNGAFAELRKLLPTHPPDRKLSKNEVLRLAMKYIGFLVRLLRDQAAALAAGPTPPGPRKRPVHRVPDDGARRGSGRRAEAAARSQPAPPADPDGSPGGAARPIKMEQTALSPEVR
UniProt P43366: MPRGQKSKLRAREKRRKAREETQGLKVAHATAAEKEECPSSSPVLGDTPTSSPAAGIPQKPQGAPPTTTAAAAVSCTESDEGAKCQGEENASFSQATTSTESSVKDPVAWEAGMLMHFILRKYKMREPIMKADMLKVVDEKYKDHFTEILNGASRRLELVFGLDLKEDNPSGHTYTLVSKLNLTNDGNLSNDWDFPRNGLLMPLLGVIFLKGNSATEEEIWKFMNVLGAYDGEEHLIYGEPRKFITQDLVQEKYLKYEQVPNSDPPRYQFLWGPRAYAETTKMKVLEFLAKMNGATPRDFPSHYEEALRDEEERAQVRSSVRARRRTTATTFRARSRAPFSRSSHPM
UniProt Q9UPY8, whole entry, looked up: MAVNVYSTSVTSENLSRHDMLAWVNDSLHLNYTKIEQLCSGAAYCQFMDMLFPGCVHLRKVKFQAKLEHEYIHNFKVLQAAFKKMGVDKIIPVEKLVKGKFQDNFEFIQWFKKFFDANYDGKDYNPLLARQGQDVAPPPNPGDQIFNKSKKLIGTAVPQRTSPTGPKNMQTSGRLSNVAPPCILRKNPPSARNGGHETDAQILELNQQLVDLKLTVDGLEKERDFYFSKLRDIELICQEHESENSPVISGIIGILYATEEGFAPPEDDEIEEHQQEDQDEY
UniProt P62312: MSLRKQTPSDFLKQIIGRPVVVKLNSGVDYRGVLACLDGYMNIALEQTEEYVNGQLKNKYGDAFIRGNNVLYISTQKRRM
UniProt P07948: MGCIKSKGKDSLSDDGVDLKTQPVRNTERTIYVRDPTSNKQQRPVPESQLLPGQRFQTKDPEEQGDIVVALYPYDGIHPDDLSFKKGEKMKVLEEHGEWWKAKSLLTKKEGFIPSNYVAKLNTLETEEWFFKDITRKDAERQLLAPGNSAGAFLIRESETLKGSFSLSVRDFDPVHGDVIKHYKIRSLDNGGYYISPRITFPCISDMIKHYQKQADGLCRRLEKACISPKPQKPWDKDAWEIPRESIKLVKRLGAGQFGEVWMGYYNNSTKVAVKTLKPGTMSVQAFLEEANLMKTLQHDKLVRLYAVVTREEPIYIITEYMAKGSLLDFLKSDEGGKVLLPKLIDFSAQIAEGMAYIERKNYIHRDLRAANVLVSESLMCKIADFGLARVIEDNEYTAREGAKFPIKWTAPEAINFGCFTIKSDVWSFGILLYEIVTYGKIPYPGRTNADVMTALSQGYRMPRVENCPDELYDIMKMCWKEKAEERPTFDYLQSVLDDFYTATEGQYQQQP
UniProt Q8WZA0: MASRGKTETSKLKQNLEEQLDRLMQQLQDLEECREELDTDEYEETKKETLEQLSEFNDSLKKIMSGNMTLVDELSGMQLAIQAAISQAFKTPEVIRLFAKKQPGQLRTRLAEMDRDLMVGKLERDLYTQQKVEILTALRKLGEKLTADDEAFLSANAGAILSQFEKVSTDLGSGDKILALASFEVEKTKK
UniProt O95819: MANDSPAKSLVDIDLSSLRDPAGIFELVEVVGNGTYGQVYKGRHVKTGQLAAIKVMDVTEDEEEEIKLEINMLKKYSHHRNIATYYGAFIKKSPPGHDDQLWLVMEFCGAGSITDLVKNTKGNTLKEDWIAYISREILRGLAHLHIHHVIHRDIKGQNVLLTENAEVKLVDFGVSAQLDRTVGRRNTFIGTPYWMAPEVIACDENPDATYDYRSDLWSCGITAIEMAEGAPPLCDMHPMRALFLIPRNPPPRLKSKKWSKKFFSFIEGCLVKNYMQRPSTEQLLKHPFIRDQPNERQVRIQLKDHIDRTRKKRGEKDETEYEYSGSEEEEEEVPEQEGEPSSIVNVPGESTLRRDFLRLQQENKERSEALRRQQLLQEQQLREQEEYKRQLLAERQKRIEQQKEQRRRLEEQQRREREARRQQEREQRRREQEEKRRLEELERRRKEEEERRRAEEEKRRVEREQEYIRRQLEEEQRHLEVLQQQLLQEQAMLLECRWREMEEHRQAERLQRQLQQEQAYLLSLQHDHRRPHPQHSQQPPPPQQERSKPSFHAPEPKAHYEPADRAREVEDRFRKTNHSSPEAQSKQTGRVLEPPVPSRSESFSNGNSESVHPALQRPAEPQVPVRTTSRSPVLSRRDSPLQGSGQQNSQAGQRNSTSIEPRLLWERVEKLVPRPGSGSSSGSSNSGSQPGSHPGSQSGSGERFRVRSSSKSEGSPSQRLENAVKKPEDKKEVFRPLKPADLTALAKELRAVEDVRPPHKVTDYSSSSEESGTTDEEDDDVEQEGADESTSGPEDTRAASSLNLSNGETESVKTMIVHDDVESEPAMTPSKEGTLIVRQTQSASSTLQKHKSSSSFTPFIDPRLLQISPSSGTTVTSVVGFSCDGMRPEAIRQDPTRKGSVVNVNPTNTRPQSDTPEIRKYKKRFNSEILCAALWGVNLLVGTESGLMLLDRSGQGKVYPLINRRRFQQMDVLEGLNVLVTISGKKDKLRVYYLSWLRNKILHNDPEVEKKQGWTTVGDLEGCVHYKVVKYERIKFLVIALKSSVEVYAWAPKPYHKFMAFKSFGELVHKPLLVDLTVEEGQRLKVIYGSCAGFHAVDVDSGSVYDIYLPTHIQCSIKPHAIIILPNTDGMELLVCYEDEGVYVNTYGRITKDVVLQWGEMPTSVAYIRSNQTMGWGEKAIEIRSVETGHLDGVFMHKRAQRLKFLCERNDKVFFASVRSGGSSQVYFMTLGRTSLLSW
UniProt O60732: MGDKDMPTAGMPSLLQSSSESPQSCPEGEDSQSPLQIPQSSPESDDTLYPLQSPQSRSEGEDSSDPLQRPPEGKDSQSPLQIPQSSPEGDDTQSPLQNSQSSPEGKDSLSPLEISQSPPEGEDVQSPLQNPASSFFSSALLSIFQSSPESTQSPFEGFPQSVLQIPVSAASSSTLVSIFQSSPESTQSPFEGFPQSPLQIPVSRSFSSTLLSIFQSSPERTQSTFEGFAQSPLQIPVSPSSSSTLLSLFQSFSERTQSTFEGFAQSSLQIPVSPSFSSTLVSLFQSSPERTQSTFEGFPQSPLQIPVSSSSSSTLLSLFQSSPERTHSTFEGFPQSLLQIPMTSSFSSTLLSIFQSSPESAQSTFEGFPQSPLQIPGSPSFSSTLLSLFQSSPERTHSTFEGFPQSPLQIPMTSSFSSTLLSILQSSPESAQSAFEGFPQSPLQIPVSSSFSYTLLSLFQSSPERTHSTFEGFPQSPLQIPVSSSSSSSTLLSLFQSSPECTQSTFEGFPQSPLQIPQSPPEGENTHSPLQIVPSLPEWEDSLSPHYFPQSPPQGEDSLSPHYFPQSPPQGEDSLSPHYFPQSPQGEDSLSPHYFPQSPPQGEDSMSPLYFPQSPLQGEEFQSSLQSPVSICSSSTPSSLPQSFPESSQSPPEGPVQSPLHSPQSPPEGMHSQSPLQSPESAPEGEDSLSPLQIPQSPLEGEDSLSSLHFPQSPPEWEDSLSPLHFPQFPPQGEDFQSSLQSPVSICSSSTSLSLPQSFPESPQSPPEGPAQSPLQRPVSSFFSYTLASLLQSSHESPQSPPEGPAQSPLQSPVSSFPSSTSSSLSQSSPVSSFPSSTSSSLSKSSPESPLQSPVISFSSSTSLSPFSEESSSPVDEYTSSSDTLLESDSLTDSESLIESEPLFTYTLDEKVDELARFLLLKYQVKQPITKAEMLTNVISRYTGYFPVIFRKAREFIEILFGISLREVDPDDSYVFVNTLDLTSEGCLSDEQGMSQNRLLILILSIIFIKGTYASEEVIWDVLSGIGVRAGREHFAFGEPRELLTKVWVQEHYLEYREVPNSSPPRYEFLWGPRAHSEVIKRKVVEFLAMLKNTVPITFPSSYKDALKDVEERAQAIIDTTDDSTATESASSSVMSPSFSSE
UniProt Q9Y608: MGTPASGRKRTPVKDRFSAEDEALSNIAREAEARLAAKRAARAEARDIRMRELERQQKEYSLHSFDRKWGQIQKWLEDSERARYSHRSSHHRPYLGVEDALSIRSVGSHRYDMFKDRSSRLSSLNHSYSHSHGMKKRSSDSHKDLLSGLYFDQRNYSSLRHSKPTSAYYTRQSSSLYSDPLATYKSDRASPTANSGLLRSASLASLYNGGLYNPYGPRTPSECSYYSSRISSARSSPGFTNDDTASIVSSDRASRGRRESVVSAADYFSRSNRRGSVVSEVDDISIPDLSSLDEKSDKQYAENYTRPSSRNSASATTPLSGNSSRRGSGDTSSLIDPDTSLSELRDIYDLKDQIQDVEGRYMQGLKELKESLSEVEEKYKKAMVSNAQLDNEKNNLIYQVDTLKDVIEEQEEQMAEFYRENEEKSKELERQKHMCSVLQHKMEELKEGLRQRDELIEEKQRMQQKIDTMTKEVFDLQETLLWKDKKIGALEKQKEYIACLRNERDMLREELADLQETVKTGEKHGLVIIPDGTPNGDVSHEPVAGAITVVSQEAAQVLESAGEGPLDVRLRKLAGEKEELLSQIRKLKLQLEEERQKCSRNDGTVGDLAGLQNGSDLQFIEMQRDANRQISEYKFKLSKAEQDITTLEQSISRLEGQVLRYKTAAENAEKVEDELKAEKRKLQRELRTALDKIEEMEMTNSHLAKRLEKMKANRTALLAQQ
UniProt P55145: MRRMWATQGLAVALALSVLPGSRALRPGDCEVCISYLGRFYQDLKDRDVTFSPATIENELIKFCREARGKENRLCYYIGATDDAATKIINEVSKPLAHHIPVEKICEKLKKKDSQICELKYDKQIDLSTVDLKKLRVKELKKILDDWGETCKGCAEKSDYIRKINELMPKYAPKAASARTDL

How the values were obtained:
Assay in all cases: log2 fold change, soluble protein after heating vs DMSO (PISA); higher = thermal stabilisation; K562 cells, 10 uM, 30 min; active = over 0.2 and 3.5 SD of the protein, either way, in both replicates (recomputed)
[1] = compound: C#Cc1cccc(Nc2ncnc3cc(OCCOC)c(OCCOC)cc23)c1 [erlotinib]
Method in brief: (§1)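 Soluble protein was defined as the supernatant after 21,000xg for 90 min. It came from K562 cells at 2×10^6 cells/mL given 10 μM compound for 30 min, heated in aliquots for 3 min across 48°C-58°C, pooled, and extracted in PBS with 0.5% NP-40 at 4°C, and was quantified by TMTpro 16plex LC-MS/MS with equalised channel sums. Thermal stability against control samples, from duplicates, is reported as log2 fold change.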

[2] = compound: C/C(=N\NC(=O)C1=CC(=CC=C1)S(=O)(=O)N2CCOCC2)/C3=C(C=CC(=C3)Cl)O
Method in brief: as §1

[3] = compound: C1=CC(=C(C=C1Cl)C2=NC3=NC=CN=C3C(=N2)NC4=CC=NC=C4)F
Method in brief: as §1

[4] = compound: C1=CC(=CC=C1C2=NC3=C(N2)C=C(C=C3)C(=O)N)OC4=CC=C(C=C4)Cl
Method in brief: as §1

[5] = compound: C1=CC2=C(C=CC(=C2)/C=C\3/C(=O)NC(=NCC4=CC=CS4)S3)N=C1
Method in brief: as §1

[6] = compound: C1=CC2=NC=CN=C2C=C1/C=C/3\C(=O)NC(=O)S3
Method in brief: as §1

[7] = compound: C1=CC=C(C=C1)C2=NC(=C(N2)C3=CC=NC=C3)C4=CC(=C(C=C4)Cl)O
Method in brief: as §1

[8] = compound: C1=CC=C2C(=C1)C3=NNC4=CC=CC(=C43)C2=O
Method in brief: as §1

[9] = compound: C1CCN(C1)C(=O)NC2=CC=CC(=C2)NC3=NC=C(C(=N3)NCCC4=CN=CN4)Br
Method in brief: as §1

[10] = compound: C1CN(CCC1(CC2=CC=C(C=C2)Cl)N)C3=NC=NC4=C3C=CN4
Method in brief: as §1

Row | Target | log2 fold change [1] | log2 fold change [2] | log2 fold change [3] | log2 fold change [4] | log2 fold change [5] | log2 fold change [6] | log2 fold change [7] | log2 fold change [8] | log2 fold change [9] | log2 fold change [10]
1 | MARCHF5 (UniProt Q9NX47) | inactive: 0.074 | inactive: -0.007 | inactive: -0.038 | inactive: 0.039 | inactive: -0.01 | inactive: 0 | inactive: -0.041 | inactive: -0.048 | inactive: -0.026 | inactive: 0.056
2 | MANEA (UniProt Q5SRI9) | inactive: -0.007 | inactive: -0.003 | inactive: 0.006 | inactive: 0.004 | inactive: -0.018 | inactive: 0.009 | inactive: 0.016 | inactive: 0.007 | inactive: -0.035 | inactive: 0.018
3 | MAPKAPK5 (UniProt Q8IW41) | active: 0.249 | inactive: -0.249 | inactive: 0.024 | inactive: -0.087 | inactive: 0.019 | inactive: 0.052 | inactive: 0.043 | inactive: 0.025 | inactive: -0.033 | inactive: 0.012
4 | LYSMD3 (UniProt Q7Z3D4) | inactive: 0.023 | inactive: 0.168 | inactive: -0.01 | inactive: 0.035 | inactive: -0.249 | inactive: -0.005 | inactive: -0.157 | inactive: 0.088 | inactive: 0.076 | inactive: -0.022
5 | MAP7D1 (UniProt Q3KQU3) | inactive: -0.06 | inactive: -0.221 | inactive: -0.42 | inactive: 0.045 | inactive: -0.053 | inactive: -0.093 | inactive: -0.041 | inactive: 0.048 | inactive: 0.005 | inactive: -0.084
6 | LYL1 (UniProt P12980) | inactive: -0.043 | inactive: -0.058 | inactive: 0.242 | inactive: 0.158 | inactive: 0.237 | inactive: 0.042 | inactive: 0.158 | inactive: 0.002 | inactive: -0.144 | inactive: -0.132
7 | MAGEB1 (UniProt P43366) | inactive: -0.078 | inactive: -0.133 | inactive: -0.515 | inactive: 0.06 | inactive: -0.016 | inactive: 0.012 | inactive: -0.058 | inactive: 0.008 | inactive: 0.08 | inactive: -0.131
8 | MAP1A isoform 2 (UniProt P78559) | inactive: -0.054 | inactive: -0.096 | inactive: -0.171 | inactive: 0.035 | inactive: -0.012 | inactive: -0.025 | inactive: -0.01 | inactive: 0.051 | inactive: 0.018 | inactive: -0.078
9 | LYSMD1 (UniProt Q96S90) | inactive: 0.019 | inactive: 0.084 | inactive: 0.061 | inactive: 0 | inactive: 0.012 | inactive: 0.097 | inactive: 0.031 | inactive: -0.07 | inactive: 0.009 | inactive: 0.038
10 | MAPRE3 (UniProt Q9UPY8) | inactive: -0.039 | active: 0.252 | inactive: 0.076 | inactive: 0.003 | inactive: -0.013 | inactive: 0.042 | inactive: -0.05 | inactive: 0 | inactive: 0.035 | inactive: -0.01
11 | MAP4 (UniProt P27816) | inactive: 0.003 | inactive: -0.041 | inactive: 0.006 | inactive: -0.009 | inactive: -0.039 | inactive: 0.011 | inactive: -0.007 | inactive: -0.02 | inactive: -0.025 | inactive: 0.015
12 | MAPK1 (UniProt P28482) | inactive: 0.013 | inactive: 0.052 | inactive: 0.058 | inactive: 0.001 | inactive: -0.02 | inactive: 0.016 | inactive: 0.007 | inactive: 0.022 | inactive: 0.01 | inactive: 0.014
13 | MAN1A1 (UniProt P33908) | inactive: 0.011 | inactive: -0.07 | inactive: 0.01 | inactive: -0.009 | inactive: 0.025 | inactive: 0.029 | inactive: 0.008 | inactive: -0.042 | inactive: 0.032 | inactive: -0.017
14 | LTA4H (UniProt P09960) | inactive: -0.021 | inactive: 0.032 | inactive: 0.057 | inactive: 0.167 | inactive: 0.054 | inactive: 0.017 | inactive: 0.005 | inactive: -0.034 | inactive: -0.023 | inactive: 0.005
15 | LSM6 (UniProt P62312) | inactive: -0.017 | inactive: 0.03 | inactive: 0.039 | inactive: 0.017 | inactive: -0.2 | inactive: -0.003 | inactive: 0.1 | inactive: -0.018 | inactive: 0.021 | inactive: 0.059
16 | MAGEC2 (UniProt Q9UBF1) | inactive: -0.026 | inactive: 0.024 | inactive: -0.099 | inactive: -0.018 | inactive: -0.003 | inactive: 0.03 | inactive: -0.011 | inactive: -0.004 | inactive: -0.022 | inactive: 0.051
17 | LYN (UniProt P07948) | inactive: -0.073 | inactive: 0.044 | inactive: -0.171 | inactive: 0.007 | inactive: 0.005 | inactive: -0.028 | inactive: -0.014 | inactive: -0.253 | inactive: 0.035 | inactive: -0.015
18 | MALSU1 (UniProt Q96EH3) | inactive: 0.007 | inactive: 0.158 | inactive: -0.038 | inactive: 0.043 | inactive: 0.026 | inactive: 0 | inactive: 0.023 | inactive: -0.009 | inactive: 0.018 | inactive: 0.022
19 | MAP2K4 isoform 2 (UniProt P45985) | inactive: -0.001 | inactive: 0.024 | inactive: 0.075 | inactive: 0.037 | inactive: 0.014 | inactive: 0.028 | inactive: -0.025 | inactive: -0.052 | inactive: -0.004 | inactive: 0.045
20 | LZIC isoform 2 (UniProt Q8WZA0) | inactive: -0.033 | inactive: 0.005 | inactive: 0.045 | inactive: 0.019 | inactive: 0.01 | inactive: 0.021 | inactive: -0.069 | inactive: -0.017 | inactive: 0.004 | inactive: 0.054
21 | MAP1LC3B2 (UniProt A6NCE7) | inactive: 0.009 | inactive: 0.093 | inactive: 0.038 | inactive: 0 | inactive: -0.031 | inactive: 0.052 | inactive: 0.016 | inactive: 0.083 | inactive: -0.002 | inactive: 0.036
22 | MAN1A2 (UniProt O60476) | inactive: -0.027 | inactive: 0.037 | inactive: 0.038 | inactive: 0.03 | inactive: 0.021 | inactive: 0.026 | inactive: -0.044 | inactive: 0.016 | inactive: 0.017 | inactive: -0.003
23 | MAP4K4 isoform 3 (UniProt O95819) | inactive: -0.057 | inactive: 0.058 | inactive: -0.047 | inactive: 0.021 | inactive: 0 | inactive: 0.034 | inactive: -0.069 | active: -0.316 | inactive: -0.031 | inactive: -0.012
24 | MAGEC1 (UniProt O60732) | inactive: 0.054 | inactive: -0.017 | inactive: -0.119 | inactive: 0.002 | inactive: -0.055 | inactive: -0.068 | inactive: -0.018 | inactive: 0.014 | inactive: -0.024 | inactive: -0.099
25 | LRRFIP2 (UniProt Q9Y608) | inactive: 0.021 | inactive: 0.001 | inactive: -0.008 | inactive: 0.016 | inactive: 0.014 | inactive: 0.084 | inactive: -0.057 | inactive: -0.022 | inactive: 0.029 | inactive: -0.013
26 | MAEA (UniProt Q7L5Y9) | inactive: -0.056 | inactive: -0.017 | inactive: 0.036 | inactive: 0.043 | inactive: -0.004 | inactive: 0.053 | inactive: -0.039 | inactive: -0.027 | inactive: -0.008 | inactive: -0.042
27 | LZTFL1 (UniProt Q9NQ48) | inactive: -0.038 | inactive: 0.018 | inactive: 0.068 | inactive: 0.082 | inactive: 0.025 | inactive: 0.044 | inactive: -0.041 | inactive: -0.014 | inactive: 0.014 | inactive: 0
28 | MAGOHB (UniProt Q96A72) | inactive: 0.011 | inactive: 0.124 | inactive: 0.025 | inactive: -0.002 | inactive: -0.16 | inactive: -0.013 | inactive: -0.032 | inactive: 0.071 | inactive: -0.157 | inactive: -0.061
29 | MANF (UniProt P55145) | inactive: -0.006 | inactive: -0.022 | inactive: 0.032 | inactive: -0.001 | inactive: -0.025 | inactive: 0.047 | inactive: -0.023 | inactive: -0.018 | inactive: 0.024 | inactive: -0.001

Two entries from above, as a markdown table:

| Row | Target | log2 fold change [1] | log2 fold change [2] | log2 fold change [3] | log2 fold change [4] | log2 fold change [5] | log2 fold change [6] | log2 fold change [7] | log2 fold change [8] | log2 fold change [9] | log2 fold change [10] |
| --- | --- | --- | --- | --- | --- | --- | --- | --- | --- | --- | --- |
| 7 | MAGEB1 (UniProt P43366) | inactive: -0.078 | inactive: -0.133 | inactive: -0.515 | inactive: 0.06 | inactive: -0.016 | inactive: 0.012 | inactive: -0.058 | inactive: 0.008 | inactive: 0.08 | inactive: -0.131 |
| 18 | MALSU1 (UniProt Q96EH3) | inactive: 0.007 | inactive: 0.158 | inactive: -0.038 | inactive: 0.043 | inactive: 0.026 | inactive: 0 | inactive: 0.023 | inactive: -0.009 | inactive: 0.018 | inactive: 0.022 |
